Assay results reported in paper PMC3029388.
No constants are given. Whether binding was seen depends on the method and setting. For some of these results: In cells and extracts the contact can be indirect. Some results given as binding are weak or reduced against the parent protein; the word gives no strength. For some of these results: Tags and fused reporters may be left off the sequences shown. Values belong to the binder of their own block, whether it stands above or below them.

Assays:
[1] = target: T1, Mod(mdg4)2.2 (Drosophila) (UniProt Q86B87); test: co-IP; extracts treated with antibodies to Mod(mdg4)2.2 and blotted with anti-Topo II, and extracts treated with antibodies to Topo II and blotted with anti-Mod(mdg4)2.2; conducted as described in ref. 15
T1 sequence: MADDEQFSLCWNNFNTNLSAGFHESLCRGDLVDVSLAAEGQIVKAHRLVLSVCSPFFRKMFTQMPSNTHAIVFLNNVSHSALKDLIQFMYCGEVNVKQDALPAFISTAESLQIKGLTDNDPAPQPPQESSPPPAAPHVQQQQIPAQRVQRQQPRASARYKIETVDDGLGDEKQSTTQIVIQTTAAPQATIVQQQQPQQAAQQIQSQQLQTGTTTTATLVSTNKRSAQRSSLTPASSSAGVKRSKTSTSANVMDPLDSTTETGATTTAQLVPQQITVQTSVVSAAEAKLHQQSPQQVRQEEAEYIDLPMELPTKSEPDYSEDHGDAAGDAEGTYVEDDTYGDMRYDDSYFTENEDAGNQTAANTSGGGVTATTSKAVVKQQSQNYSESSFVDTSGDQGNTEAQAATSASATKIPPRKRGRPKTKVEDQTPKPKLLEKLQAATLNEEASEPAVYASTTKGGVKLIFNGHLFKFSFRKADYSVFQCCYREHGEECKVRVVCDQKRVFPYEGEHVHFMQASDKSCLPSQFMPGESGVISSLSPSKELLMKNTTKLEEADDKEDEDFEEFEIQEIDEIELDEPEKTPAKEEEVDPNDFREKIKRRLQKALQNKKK

[2] = target: T2, Mod(mdg4)2.2 fused to the GAL4 activation domain or DNA binding domain (Drosophila) (UniProt Q86B87); test: two-hybrid; Invitrogen ProQuest Two-Hybrid System; GAL4 activation domain (pDEST22) and DNA binding domain (pDEST32) fusions; growth on -URA and lack of growth on 5FOA plates indicates interaction
T2 sequence: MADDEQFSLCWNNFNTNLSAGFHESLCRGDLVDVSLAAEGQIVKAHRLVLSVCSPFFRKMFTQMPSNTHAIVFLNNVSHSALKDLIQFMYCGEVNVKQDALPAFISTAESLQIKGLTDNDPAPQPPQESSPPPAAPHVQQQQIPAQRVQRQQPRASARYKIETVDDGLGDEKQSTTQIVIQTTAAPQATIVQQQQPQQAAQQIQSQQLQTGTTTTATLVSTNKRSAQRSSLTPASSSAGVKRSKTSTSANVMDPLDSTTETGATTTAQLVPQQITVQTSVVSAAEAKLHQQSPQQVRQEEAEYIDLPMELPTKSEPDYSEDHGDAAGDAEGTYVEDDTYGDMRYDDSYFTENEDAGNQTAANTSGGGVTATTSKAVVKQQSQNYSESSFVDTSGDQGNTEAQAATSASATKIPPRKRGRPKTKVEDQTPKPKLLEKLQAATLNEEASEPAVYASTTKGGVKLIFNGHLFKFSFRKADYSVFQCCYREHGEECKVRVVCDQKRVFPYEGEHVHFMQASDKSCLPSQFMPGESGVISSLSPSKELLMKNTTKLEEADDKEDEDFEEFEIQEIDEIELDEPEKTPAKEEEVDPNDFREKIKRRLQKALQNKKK

[3] = target: Topo II fused to the GAL4 activation domain or DNA binding domain (Drosophila) (UniProt P15348); test: as above
[4] = target: T3, Mod(mdg4)2.2 fused to the GAL4 activation domain or DNA binding domain (Drosophila), Q86B87; test: as above; details: remark: other sources report otherwise
T3 chain: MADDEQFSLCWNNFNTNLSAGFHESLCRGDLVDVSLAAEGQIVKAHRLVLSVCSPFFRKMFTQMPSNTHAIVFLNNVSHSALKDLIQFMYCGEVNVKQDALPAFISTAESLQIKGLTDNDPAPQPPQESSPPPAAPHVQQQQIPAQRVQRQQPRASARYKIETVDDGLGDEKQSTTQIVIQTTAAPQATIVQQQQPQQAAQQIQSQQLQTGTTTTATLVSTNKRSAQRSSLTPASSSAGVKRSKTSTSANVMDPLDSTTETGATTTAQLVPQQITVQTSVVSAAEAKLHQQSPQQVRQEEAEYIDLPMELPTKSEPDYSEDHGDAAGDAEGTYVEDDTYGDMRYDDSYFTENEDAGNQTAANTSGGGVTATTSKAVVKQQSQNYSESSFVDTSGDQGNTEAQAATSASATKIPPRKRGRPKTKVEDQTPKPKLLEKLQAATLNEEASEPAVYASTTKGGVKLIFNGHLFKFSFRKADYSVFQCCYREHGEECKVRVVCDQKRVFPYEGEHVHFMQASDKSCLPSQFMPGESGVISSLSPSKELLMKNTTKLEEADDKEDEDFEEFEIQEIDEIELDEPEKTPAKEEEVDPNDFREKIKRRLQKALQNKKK

- binding [1]: binds
B1: DNA Topoisomerase II (protein, UniProt P15348 1-1447)
chain: MENGNKALSIEQMYQKKSQLEHILLRPDSYIGSVEFTKELMWVYDNSQNRMVQKEISFVPGLYKIFDEILVNAADNKQRDKSMNTIKIDIDPERNMVSVWNNGQGIPVTMHKEQKMYVPTMIFGHLLTSSNYNDDEKKVTGGRNGYGAKLCNIFSTSFTVETATREYKKSFKQTWGNNMGKASDVQIKDFNGTDYTRITFSPDLAKFKMDRLDEDIVALMSRRAYDVAASSKGVSVFLNGNKLGVRNFKDYIDLHIKNTDDDSGPPIKIVHEVANERWEVACCPSDRGFQQVSFVNSIATYKGGRHVDHVVDNLIKQLLEVLKKKNKGGINIKPFQVRNHLWVFVNCLIENPTFDSQTKENMTLQQKGFGSKCTLSEKFINNMSKSGIVESVLAWAKFKAQNDIAKTGGRKSSKIKGIPKLEDANEAGGKNSIKCTLILTEGDSAKSLAVSGLGVIGRDLYGVFPLRGKLLNVREANFKQLSENAEINNLCKIIGLQYKKKYLTEDDLKTLRYGKVMIMTDQDQDGSHIKGLLINFIHTNWPELLRLPFLEEFITPIVKATKKNEELSFYSLPEFEEWKNDTANHHTYNIKYYKGLGTSTSKEAKEYFQDMDRHRILFKYDGSVDDESIVMAFSKKHIESRKVWLTNHMDEVKRRKELGLPERYLYTKGTKSITYADFINLELVLFSNADNERSIPSLVDGLKPGQRKVMFTCFKRNDKREVKVAQLSGSVAEMSAYHHGEVSLQMTIVNLAQNFVGANNINLLEPRGQFGTRLSGGKDCASARYIFTIMSPLTRLIYHPLDDPLLDYQVDDGQKIEPLWYLPIIPMVLVNGAEGIGTGWSTKISNYNPREIMKNLRKMINGQEPSVMHPWYKNFLGRMEYVSDGRYIQTGNIQILSGNRLEISELPVGVWTQNYKENVLEPLSNGTEKVKGIISEYREYHTDTTVRFVISFAPGEFERIHAEEGGFYRVFKLTTTLSTNQMHAFDQNNCLRRFPTAIDILKEYYKLRREYYARRRDFLVGQLTAQADRLSDQARFILEKCEKKLVVENKQRKAMCDELLKRGYRPDPVKEWQRRIKMEDAEQADEEDEEEEEAAPSVSSKAKKEKEVDPEKAFKKLTDVKKFDYLLGMSMWMLTEEKKNELLKQRDTKLSELESLRKKTPEMLWLDDLDALESKLNEVEEKERAEEQGINLKTAKALKGQKSASAKGRKVKSMGGGAGAGDVFPDPDGEPVEFKITEEIIKKMAAAAKVAQAAKEPKKPKEPKEPKVKKEPKGKQIKAEPDASGDEVDEFDAMVEGGSKTSPKAKKAVVKKEPGEKKPRQKKENGGGLKQSKIDFSKAKAKKSDDDVEEVTPRAERPGRRQASKKIDYSSLFSDEEEDGGNVGSDDDGNASDDDSPKRPAKRGREDESSGGAKKKAPPKKRRAVIESDDDDIEIDEDDDDDSDFNC

- binding [2]: binds
- binding [3]: binds
B2: Topo II fused to the GAL4 activation domain or DNA binding domain (protein, UniProt P15348 1-1447)
chain: MENGNKALSIEQMYQKKSQLEHILLRPDSYIGSVEFTKELMWVYDNSQNRMVQKEISFVPGLYKIFDEILVNAADNKQRDKSMNTIKIDIDPERNMVSVWNNGQGIPVTMHKEQKMYVPTMIFGHLLTSSNYNDDEKKVTGGRNGYGAKLCNIFSTSFTVETATREYKKSFKQTWGNNMGKASDVQIKDFNGTDYTRITFSPDLAKFKMDRLDEDIVALMSRRAYDVAASSKGVSVFLNGNKLGVRNFKDYIDLHIKNTDDDSGPPIKIVHEVANERWEVACCPSDRGFQQVSFVNSIATYKGGRHVDHVVDNLIKQLLEVLKKKNKGGINIKPFQVRNHLWVFVNCLIENPTFDSQTKENMTLQQKGFGSKCTLSEKFINNMSKSGIVESVLAWAKFKAQNDIAKTGGRKSSKIKGIPKLEDANEAGGKNSIKCTLILTEGDSAKSLAVSGLGVIGRDLYGVFPLRGKLLNVREANFKQLSENAEINNLCKIIGLQYKKKYLTEDDLKTLRYGKVMIMTDQDQDGSHIKGLLINFIHTNWPELLRLPFLEEFITPIVKATKKNEELSFYSLPEFEEWKNDTANHHTYNIKYYKGLGTSTSKEAKEYFQDMDRHRILFKYDGSVDDESIVMAFSKKHIESRKVWLTNHMDEVKRRKELGLPERYLYTKGTKSITYADFINLELVLFSNADNERSIPSLVDGLKPGQRKVMFTCFKRNDKREVKVAQLSGSVAEMSAYHHGEVSLQMTIVNLAQNFVGANNINLLEPRGQFGTRLSGGKDCASARYIFTIMSPLTRLIYHPLDDPLLDYQVDDGQKIEPLWYLPIIPMVLVNGAEGIGTGWSTKISNYNPREIMKNLRKMINGQEPSVMHPWYKNFLGRMEYVSDGRYIQTGNIQILSGNRLEISELPVGVWTQNYKENVLEPLSNGTEKVKGIISEYREYHTDTTVRFVISFAPGEFERIHAEEGGFYRVFKLTTTLSTNQMHAFDQNNCLRRFPTAIDILKEYYKLRREYYARRRDFLVGQLTAQADRLSDQARFILEKCEKKLVVENKQRKAMCDELLKRGYRPDPVKEWQRRIKMEDAEQADEEDEEEEEAAPSVSSKAKKEKEVDPEKAFKKLTDVKKFDYLLGMSMWMLTEEKKNELLKQRDTKLSELESLRKKTPEMLWLDDLDALESKLNEVEEKERAEEQGINLKTAKALKGQKSASAKGRKVKSMGGGAGAGDVFPDPDGEPVEFKITEEIIKKMAAAAKVAQAAKEPKKPKEPKEPKVKKEPKGKQIKAEPDASGDEVDEFDAMVEGGSKTSPKAKKAVVKKEPGEKKPRQKKENGGGLKQSKIDFSKAKAKKSDDDVEEVTPRAERPGRRQASKKIDYSSLFSDEEEDGGNVGSDDDGNASDDDSPKRPAKRGREDESSGGAKKKAPPKKRRAVIESDDDDIEIDEDDDDDSDFNC

- binding [4]: binds
B3: Mod(mdg4)2.2 fused to the GAL4 activation domain or DNA binding domain, Q86B87 1-610 (protein)
chain: MADDEQFSLCWNNFNTNLSAGFHESLCRGDLVDVSLAAEGQIVKAHRLVLSVCSPFFRKMFTQMPSNTHAIVFLNNVSHSALKDLIQFMYCGEVNVKQDALPAFISTAESLQIKGLTDNDPAPQPPQESSPPPAAPHVQQQQIPAQRVQRQQPRASARYKIETVDDGLGDEKQSTTQIVIQTTAAPQATIVQQQQPQQAAQQIQSQQLQTGTTTTATLVSTNKRSAQRSSLTPASSSAGVKRSKTSTSANVMDPLDSTTETGATTTAQLVPQQITVQTSVVSAAEAKLHQQSPQQVRQEEAEYIDLPMELPTKSEPDYSEDHGDAAGDAEGTYVEDDTYGDMRYDDSYFTENEDAGNQTAANTSGGGVTATTSKAVVKQQSQNYSESSFVDTSGDQGNTEAQAATSASATKIPPRKRGRPKTKVEDQTPKPKLLEKLQAATLNEEASEPAVYASTTKGGVKLIFNGHLFKFSFRKADYSVFQCCYREHGEECKVRVVCDQKRVFPYEGEHVHFMQASDKSCLPSQFMPGESGVISSLSPSKELLMKNTTKLEEADDKEDEDFEEFEIQEIDEIELDEPEKTPAKEEEVDPNDFREKIKRRLQKALQNKKK
